Substitutions are numbered along the chain they refer to. Results are given in words; binding and its absence hold for the method and conditions named. A result given as binding can be weak or reduced; the word gives no strength.

The target in assay [1] is canine CD137 overexpressed on HEK293F cell surface (dog). The assay is described as follows: summary of Example 4.
The target of assay [2] is rat CD137 (as named in the SPR paragraph) (rat). The assay is described as follows: SPR paragraph.
In assay [3] the target is canine CD137 overexpressed on HEK293F cell surface (dog). The assay is described as follows: flow cytometry, HEK293F.
Assay [4] has the same target. The assay is described as follows: flow cytometry, HEK293F cells expressing CD137, IgG 100 nM [Cont.].

B1: AG10058 (antibody, human IgG4 S228P, kappa, V domains shown)
VH: EVQLVESGGGLVQPGGSLRLSCAASGFSLSTSGVGVGWIRQAPGKGLEWLALIDWDDDKYYSPSLKSRLTISRDNSKNTLYLQLNSLRAEDTAVYYCARGGSDTVLGDWFAYWGQGTLVTVSS
VL: DIQLTQSPSSLSASVGDRVTITCRASQSVSPYLAWYQQKPGKAPKLLIYDASSLESGVPSRFSGSGSGTDFTLTISSLQPEDFATYYCQQGYSLWTFGQGTKVEIKR
Turning to B1, the binding entry in assay [1], in assay [2], in assay [3] and in assay [4] was “binds” in each case.

B2: AG10059 (antibody, human IgG4 S228P, kappa, V domains shown)
VH: EVQLVESGGGLVQPGGSLRLSCAASGYSITSGHYWAWIRQAPGKGLEWVSSISGYGSTTYYADSVKGRFTISRDNSKNTLYLQLNSLRAEDTAVYYCARGGSDAVLGDWFAYWGQGTLVTVSS
VL: B1 VL with S28G, V29I, S30G, P31S, Y32F, S53N, S56T, S93Y
For the molecule B2, the binding entry in assay [2] was “no binding”; in assay [4], “binds”.

These data come from patent US20190055314A1.
